Results from one PubChem assay

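Malaria parasite (P. falciparum) lines kept in red blood cells; parasite DNA is measured by SYBR Green fluorescence after lysis, 72 h after compound addition. Each compound was titrated across a series from about 0.000037 to 29 µM. The number is the fitted AC50, the concentration giving a half-maximal change in signal; a lower value means higher potency, whether the curve shows a decrease or an increase. Calls follow the curve class and fit quality: every row here is inconclusive, covering signal-raising curves and weak, poorly fitted, partial or highest-dose-only inhibition curves.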

Values are in nM. All entries here are filed as inconclusive. Only part of the assay is shown, chiefly results filed as inconclusive. Potencies fitted to partial, single-point or poorly fitting curves are rough. The first word of each remark tells which way the curve ran; it can be opposite to the aim of the assay.

structure: O=C(Nc1ccc(Oc2ccc(Cl)cc2)c(Cl)c1)c1cc(I)cc(I)c1O
tested on / at: CP247
Potency (nM): 11220
curve as filed: inhibitor, single point

structure: O=C(Nc1ccc(Oc2ccc(Cl)cc2)c(Cl)c1)c1cc(I)cc(I)c1O
tested on / at: W2
Potency (nM): 19011
curve as filed: inhibitor, single point

structure: O=C(Nc1ccc(Oc2ccc(Cl)cc2)c(Cl)c1)c1cc(I)cc(I)c1O
tested on / at: CP191
Potency (nM): 11220
curve as filed: inhibitor, single point

structure: O=C(Nc1ccc(Oc2ccc(Cl)cc2)c(Cl)c1)c1cc(I)cc(I)c1O
tested on / at: AS120
Potency (nM): 12589
curve as filed: inhibitor, partial curve, poor fit

structure: O=C(Nc1ccc(Oc2ccc(Cl)cc2)c(Cl)c1)c1cc(I)cc(I)c1O
tested on / at: TAB165
Potency (nM): 11220
curve as filed: inhibitor, single point

structure: O=C(Nc1ccc(Oc2ccc(Cl)cc2)c(Cl)c1)c1cc(I)cc(I)c1O
tested on / at: CP215
Potency (nM): 4776
curve as filed: inhibitor, partial curve

structure: O=C(Nc1ccc(Oc2ccc(Cl)cc2)c(Cl)c1)c1cc(I)cc(I)c1O
tested on / at: CP265
Potency (nM): 10000
curve as filed: inhibitor, partial curve

structure: O=C(Nc1ccc(Oc2ccc(Cl)cc2)c(Cl)c1)c1cc(I)cc(I)c1O
tested on / at: CP252
Potency (nM): 12589
curve as filed: inhibitor, single point

structure: Cc1cc(C)c(NC(=O)C[C@H](CC(=O)O)c2cccc3ccccc23)c(C(=O)N2CCC3(CCCC3)CC2)c1
tested on / at: ICS
Potency (nM): 10000
curve as filed: inhibitor, single point

structure: Cc1cc(C)c(NC(=O)C[C@H](CC(=O)O)c2cccc3ccccc23)c(C(=O)N2CCC3(CCCC3)CC2)c1
tested on / at: W2
Potency (nM): 19011
curve as filed: inhibitor, single point

structure: Cc1cc(C)c(NC(=O)C[C@H](CC(=O)O)c2cccc3ccccc23)c(C(=O)N2CCC3(CCCC3)CC2)c1
tested on / at: 7G8
Potency (nM): 14125
curve as filed: inhibitor, partial curve, poor fit

structure: COc1cc(NCc2ccc3nc(N)nc(N)c3c2C)cc(OC)c1OC
tested on / at: CP211
Potency (nM): 268.5
curve as filed: inhibitor, full curve, poor fit

structure: C[C@H]1C[C@@H]2[C@@H]([C@@H](O)C[C@@]3(C)[C@H]2CC[C@]3(O)C(=O)CO)[C@@]2(C)C=CC(=O)C=C12
tested on / at: W2
Potency (nM): 14.4
curve as filed: inhibitor, partial curve, poor fit

structure: C[C@H]1C[C@@H]2[C@@H]([C@@H](O)C[C@@]3(C)[C@H]2CC[C@]3(O)C(=O)CO)[C@@]2(C)C=CC(=O)C=C12
tested on / at: CP297
Potency (nM): 9074
curve as filed: inhibitor, single point

structure: C[C@H]1C[C@@H]2[C@@H]([C@@H](O)C[C@@]3(C)[C@H]2CC[C@]3(O)C(=O)CO)[C@@]2(C)C=CC(=O)C=C12
tested on / at: PC26
Potency (nM): 0.6
curve as filed: activator

structure: CCC1(c2ccccc2)C(=O)NCNC1=O
tested on / at: CP260
Potency (nM): 17782
curve as filed: inhibitor, single point

structure: CCC1(c2ccccc2)C(=O)NCNC1=O
tested on / at: CP262
Potency (nM): 3381
curve as filed: activator, partial curve, poor fit

structure: CCC1(c2ccccc2)C(=O)NCNC1=O
tested on / at: CP335
Potency (nM): 4256
curve as filed: inhibitor, single point

structure: CCC1(c2ccccc2)C(=O)NCNC1=O
tested on / at: ICS
Potency (nM): 17782
curve as filed: inhibitor, single point

structure: CCC(=O)O[C@@](Cc1ccccc1)(c1ccccc1)[C@@H](C)CN(C)C
tested on / at: P93_24
Potency (nM): 1778
curve as filed: inhibitor, full curve, poor fit

structure: CCC(=O)O[C@@](Cc1ccccc1)(c1ccccc1)[C@@H](C)CN(C)C
tested on / at: DIV14
Potency (nM): 1811
curve as filed: inhibitor, partial curve

structure: CCC(=O)O[C@@](Cc1ccccc1)(c1ccccc1)[C@@H](C)CN(C)C
tested on / at: CP211
Potency (nM): 7.2
curve as filed: inhibitor, full curve, poor fit

structure: CCC(=O)O[C@@](Cc1ccccc1)(c1ccccc1)[C@@H](C)CN(C)C
tested on / at: DIV30
Potency (nM): 3612
curve as filed: inhibitor, partial curve, poor fit

structure: CCC(=O)O[C@@](Cc1ccccc1)(c1ccccc1)[C@@H](C)CN(C)C
tested on / at: Dd2
Potency (nM): 1778
curve as filed: inhibitor, partial curve

structure: CCC(=O)O[C@@](Cc1ccccc1)(c1ccccc1)[C@@H](C)CN(C)C
tested on / at: PC15
Potency (nM): 5012
curve as filed: inhibitor, partial curve

structure: CCC(=O)O[C@@](Cc1ccccc1)(c1ccccc1)[C@@H](C)CN(C)C
tested on / at: PC26
Potency (nM): 2279
curve as filed: inhibitor, partial curve

3 of the entries, repeated:

{"structure": "C[C@H]1C[C@@H]2[C@@H]([C@@H](O)C[C@@]3(C)[C@H]2CC[C@]3(O)C(=O)CO)[C@@]2(C)C=CC(=O)C=C12", "tested on / at": "PC26", "Potency (nM)": "0.6", "curve as filed": "activator"}
{"structure": "COc1cc(NCc2ccc3nc(N)nc(N)c3c2C)cc(OC)c1OC", "tested on / at": "CP211", "Potency (nM)": "268.5", "curve as filed": "inhibitor, full curve, poor fit"}
{"structure": "CCC(=O)O[C@@](Cc1ccccc1)(c1ccccc1)[C@@H](C)CN(C)C", "tested on / at": "CP211", "Potency (nM)": "7.2", "curve as filed": "inhibitor, full curve, poor fit"}

Source: PubChem BioAssay AID504749 (NCATS, 2011).